# This is one part of the list. The list holds hits alone, and they repeat only in part.
# Protein sequences, listed by entry. Tags and fused reporters are not part of them.
# SRSF9, Q13242, UniProt Q13242, whole entry: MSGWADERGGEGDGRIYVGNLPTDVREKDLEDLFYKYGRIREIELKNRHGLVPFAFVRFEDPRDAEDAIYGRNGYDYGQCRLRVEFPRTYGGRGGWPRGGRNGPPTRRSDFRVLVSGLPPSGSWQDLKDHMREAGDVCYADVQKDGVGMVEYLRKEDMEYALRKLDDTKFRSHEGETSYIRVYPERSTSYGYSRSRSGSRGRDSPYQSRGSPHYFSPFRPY
# TUBB8, Q3ZCM7, UniProt Q3ZCM7, whole entry: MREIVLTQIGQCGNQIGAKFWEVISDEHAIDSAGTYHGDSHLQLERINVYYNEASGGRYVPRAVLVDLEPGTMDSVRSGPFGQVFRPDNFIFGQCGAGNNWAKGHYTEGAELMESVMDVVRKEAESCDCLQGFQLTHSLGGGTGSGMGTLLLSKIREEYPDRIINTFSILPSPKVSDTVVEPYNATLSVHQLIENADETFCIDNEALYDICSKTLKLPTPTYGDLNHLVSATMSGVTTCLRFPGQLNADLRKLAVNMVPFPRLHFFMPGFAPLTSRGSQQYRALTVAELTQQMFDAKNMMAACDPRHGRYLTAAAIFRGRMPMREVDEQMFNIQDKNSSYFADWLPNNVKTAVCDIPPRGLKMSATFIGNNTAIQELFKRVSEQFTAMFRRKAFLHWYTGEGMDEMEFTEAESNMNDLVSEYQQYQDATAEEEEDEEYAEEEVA
# Assays:
# Assay in all cases: PRISMA enrichment of interactor (LFQ) in peptide spot vs all other peptide spots (log2 fold change); higher = stronger / more specific binding of the interactor to the peptide
# [1] = biological target: AK6, Q9Y3D8
# Description: (§1)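 PRISMA: 221 full-length sORF-encoded peptides (3-15 aa), plus SOS1/GLUT1 control peptides, were spot-synthesized on cellulose membranes in triplicate. Membranes were incubated with HEK293T lysate, and bound proteins were identified by LC-MS/MS with LFQ. Enrichment is the log2 fold change versus all other peptide spots; only significant interactors are listed (cutoff c=6, x0=2.8).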
# [2] = biological target: ANP32B, Q92688
# Description: as §1
# [3] = biological target: ANP32E, Q9BTT0
# Description: as §1
# [4] = biological target: DDX21, Q9NR30
# Description: as §1
# [5] = biological target: EBNA1BP2, Q99848
# Description: as §1
# [6] = biological target: EIF6, P56537
# Description: as §1
# [7] = biological target: GNL2, Q13823
# Description: as §1
# [8] = biological target: GPC4, O75487
# Description: as §1
# [9] = biological target: GTPBP4, Q9BZE4
# Description: as §1
# [10] = biological target: HTATSF1, O43719
# Description: as §1
# [11] = biological target: LARP1, Q6PKG0
# Description: as §1
# [12] = biological target: LTV1, Q96GA3
# Description: as §1
# [13] = biological target: MOV10, Q9HCE1
# Description: as §1
# [14] = biological target: MRPL12, P52815
# Description: as §1
# [15] = biological target: MRPS25, P82663
# Description: as §1
# [16] = biological target: MRPS26, Q9BYN8
# Description: as §1
# [17] = biological target: MRPS27, Q92552
# Description: as §1
# [18] = biological target: MRPS31, Q92665
# Description: as §1
# [19] = biological target: MRPS9, P82933
# Description: as §1
# [20] = biological target: NAT10, Q9H0A0
# Description: as §1
# [21] = biological target: NOB1, Q9ULX3
# Description: as §1
# [22] = biological target: NOP2, P46087
# Description: as §1
# [23] = biological target: PAF1, Q8N7H5
# Description: as §1
# [24] = biological target: PTCD3, Q96EY7
# Description: as §1
# [25] = biological target: RBM10
# Description: as §1
# [26] = biological target: RBM34, P42696
# Description: as §1
# [27] = biological target: RCN2, Q14257
# Description: as §1
# [28] = biological target: RIOK2, Q9BVS4
# Description: as §1
# [29] = biological target: RSL1D1, O76021
# Description: as §1
# [30] = biological target: SART3, Q15020
# Description: as §1
# [31] = biological target: SRSF9, Q13242
# Description: as §1
# [32] = biological target: STAU1, O95793
# Description: as §1
# [33] = biological target: SUPT5H, O00267
# Description: as §1
# [34] = biological target: UPF1, Q92900
# Description: as §1
# [35] = biological target: ANP32A, P39687
# Description: as §1
# [36] = biological target: COLGALT1, Q8NBJ5
# Description: as §1
# [37] = biological target: DAP3, P51398
# Description: as §1
# [38] = biological target: DEF6, Q9H4E7
# Description: as §1
# [39] = biological target: HASPIN, Q8TF76
# Description: as §1
# [40] = biological target: MAGEB2, O15479
# Description: as §1
# [41] = biological target: MRPS35, P82673
# Description: as §1
# [42] = biological target: NDUFAB1, O14561
# Description: as §1
# [43] = biological target: NOP58, Q9Y2X3
# Description: as §1
# [44] = biological target: PLAA, Q9Y263
# Description: as §1
# [45] = biological target: RPLP1, P05386
# Description: as §1
# [46] = biological target: SRSF1, Q07955
# Description: as §1
# [47] = biological target: TAF8, Q7Z7C8
# Description: as §1
# [48] = biological target: TRAF2, Q12933
# Description: as §1
# [49] = biological target: TUBB8, Q3ZCM7
# Description: as §1
binder,measurement,setting,value
MARRQN [PECAM1],PRISMA enrichment of interactor (log2),[1],5.14
same,PRISMA enrichment of interactor (log2),[2],5.94
same,PRISMA enrichment of interactor (log2),[3],6.1
same,PRISMA enrichment of interactor (log2),[4],5.78
same,PRISMA enrichment of interactor (log2),[5],5.37
same,PRISMA enrichment of interactor (log2),[6],4.83
same,PRISMA enrichment of interactor (log2),[7],5.25
same,PRISMA enrichment of interactor (log2),[8],5.36
same,PRISMA enrichment of interactor (log2),[9],5.97
same,PRISMA enrichment of interactor (log2),[10],7.02
same,PRISMA enrichment of interactor (log2),[11],6.35
same,PRISMA enrichment of interactor (log2),[12],4.93
same,PRISMA enrichment of interactor (log2),[13],6.17
same,PRISMA enrichment of interactor (log2),[14],4.44
same,PRISMA enrichment of interactor (log2),[15],5.27
same,PRISMA enrichment of interactor (log2),[16],4.84
same,PRISMA enrichment of interactor (log2),[17],5.23
same,PRISMA enrichment of interactor (log2),[18],5.65
same,PRISMA enrichment of interactor (log2),[19],5.69
same,PRISMA enrichment of interactor (log2),[20],5.76
same,PRISMA enrichment of interactor (log2),[21],4.87
same,PRISMA enrichment of interactor (log2),[22],5.39
same,PRISMA enrichment of interactor (log2),[23],5.87
same,PRISMA enrichment of interactor (log2),[24],6.15
same,PRISMA enrichment of interactor (log2),[25],5.75
same,PRISMA enrichment of interactor (log2),[26],5.17
same,PRISMA enrichment of interactor (log2),[27],5.99
same,PRISMA enrichment of interactor (log2),[28],4.48
same,PRISMA enrichment of interactor (log2),[29],4.99
same,PRISMA enrichment of interactor (log2),[30],4.73
same,PRISMA enrichment of interactor (log2),[31],5.67
same,PRISMA enrichment of interactor (log2),[32],5.33
same,PRISMA enrichment of interactor (log2),[33],5.04
same,PRISMA enrichment of interactor (log2),[34],5.27
MAAARPGR [MFN2],PRISMA enrichment of interactor (log2),[1],5.46
same,PRISMA enrichment of interactor (log2),[35],5.76
same,PRISMA enrichment of interactor (log2),[3],7.04
same,PRISMA enrichment of interactor (log2),[36],9.23
same,PRISMA enrichment of interactor (log2),[37],5.85
same,PRISMA enrichment of interactor (log2),[38],6.66
same,PRISMA enrichment of interactor (log2),[39],4.06
same,PRISMA enrichment of interactor (log2),[10],5.87
same,PRISMA enrichment of interactor (log2),[11],5.78
same,PRISMA enrichment of interactor (log2),[40],5.24
same,PRISMA enrichment of interactor (log2),[41],5.29
same,PRISMA enrichment of interactor (log2),[19],5.11
same,PRISMA enrichment of interactor (log2),[42],5.16
same,PRISMA enrichment of interactor (log2),[43],7.04
same,PRISMA enrichment of interactor (log2),[23],5.37
same,PRISMA enrichment of interactor (log2),[44],9.72
same,PRISMA enrichment of interactor (log2),[45],6.59
same,PRISMA enrichment of interactor (log2),[46],5.64
same,PRISMA enrichment of interactor (log2),[31],6.35
same,PRISMA enrichment of interactor (log2),[47],4.61
same,PRISMA enrichment of interactor (log2),[48],6.34
same,PRISMA enrichment of interactor (log2),[49],5.55

# 2 entries from above, as tab-separated lines:
binder	measurement	setting	value
MAAARPGR [MFN2]	PRISMA enrichment of interactor (log2)	[19]	5.11
same	PRISMA enrichment of interactor (log2)	[42]	5.16

# — the supplement of paper PMC10032668
